Measurements from patent US20200055871A1, “ACTIVATORS OF THE RETINOIC ACID INDUCIBLE GENE "RIG-I" PATHWAY AND METHODS OF USE THEREOF” (Kineta Immuno-Oncology LLC, priority 2018, published 2020).
The name of at least one read-out is uncertain.

These compounds were tested on IRF3-deficient THP1-Lucia™ ISG IRF3−/− cells (assay: THP1-Lucia ISG IRF3−/− reporter assay (IRF3-deficient control cells)). Conditions: compound 5 to 20 μM, 18 h.
Assay type: cell-based, human
Method: The promoter was comprised of five IFN-stimulated response elements (ISRE) fused to an ISG54 minimal promoter which is unresponsive to NF-kB or AP-1 pathways. […] The IRF3-deficient THP1-Lucia™ ISG IRF3−/−reporter cell line was generated by CRISPR technology from the parent THP1-Lucia™ ISG reporter cell line.
THP1-Lucia™ ISG cells and IRF3-deficient THP1-Lucia™ ISG IRF3−/−cells were differentiated with PMA (100 ng/ml) and stimulated with compounds at the indicated concentrations (5 to 20 μM), positive control, or not treated (background). Luciferase secretion was quantified using the QUANTI-Luc luciferase assay system (InvivoGen) 18 h after stimulation. Data are shown as fold increase luciferase activity over background in Table 7 and represent the IRF3-dependent ISG54 promoter activity by the THP1-Lucia™ ISG cells in response to compounds. […] The fold increase of compounds (10 μM, *20 μM, **5 μM) induced IRF3 dependent luciferase activity is indicated as follows: “≠” indicates less than 2.4 fold increase; “+” indicates a 2.4-4.9 fold increase; “++” indicates a 5-9.9 fold increase; “+++” indicates a 10-19 fold increase; “++++” indicates a 20-39 fold increase; “+++++” indicates greater than or equal to 40 fold increase.
In the case of O=C(Nc1nc2ccc3scnc3c2s1)c1ccc2occc2c1 [Example 15, N-{3,10-dithia-5,12-diazatricyclo[7.3.0.0^2,^6]dodeca-1,4,6,8,11-pentaen-4-yl}-1-benzofuran-5-carboxamide], the “fold increase of luciferase activity, THP1 ISG IRF3−/−” value (“fold increase of luciferase activity” below) is reported as “− (less than 0.5 fold above baseline was considered below the level of quantitation)”. In the case of O=C(Nc1nc2ccc3scnc3c2s1)c1ccc2sccc2c1 [Example 14, N-{3,10-dithia-5,12-diazatricyclo[7.3.0.0^2,^6]dodeca-1,4,6,8,11-pentaen-4-yl}-1-benzothiophene-5-carboxamide], the “fold increase of luciferase activity” value is reported as “− (less than 0.5 fold above baseline was considered below the level of quantitation)”. COc1cc2ccccc2cc1C(=O)Nc1nc2ccc3scnc3c2s1 [Example 16, N-{3,10-dithia-5,12-diazatricyclo[7.3.0.0^2,^6]dodeca-1,4,6,8,11-pentaen-4-yl}-3-methoxynaphthalene-2-carboxamide] was tested, and the “fold increase of luciferase activity” value was “− (less than 0.5 fold above baseline was considered below the level of quantitation)”. O=C(Nc1nc2ccc3scnc3c2s1)c1cc2ccccc2cc1OCCN1CC2CC1CO2 (centres unmarked) [Example 33, N-{3,10-dithia-5,12-diazatricyclo[7.3.0.0^2,^6]dodeca-1,4,6,8,11-pentaen-4-yl}-3-(2-{2-oxa-5-azabicyclo[2.2.1]heptan-5-yl}ethoxy)naphthalene-2-carboxamide] was tested, and the “fold increase of luciferase activity” value was “− (less than 0.5 fold above baseline was considered below the level of quantitation)”. O=C(Nc1nc2ccc3scnc3c2s1)c1ccc2nsnc2c1 [Example 12, N-{3,10-dithia-5,12-diazatricyclo[7.3.0.0^2,^6]dodeca-1,4,6,8,11-pentaen-4-yl}-2,1,3-benzothiadiazole-5-carboxamide] was tested, and the “fold increase of luciferase activity” value was “− (less than 0.5 fold above baseline was considered below the level of quantitation)”. In the case of COc1nc2c(ccc3nc(NC(=O)c4cc5ccccc5cc4OCCCN4CCOCC4)sc32)s1 [Example 31, N-{11-methoxy-3,10-dithia-5,12-diazatricyclo[7.3.0.0^2,^6]dodeca-1,4,6,8,11-pentaen-4-yl}-3-[3-(morpholin-4-yl)propoxy]naphthalene-2-carboxamide], the “fold increase of luciferase activity” value is reported as “− (less than 0.5 fold above baseline was considered below the level of quantitation)”. In the case of O=C(Nc1nc2ccc3scnc3c2s1)c1cc2ccccc2cc1OCCCN1CCOCC1 [Example 1, N-{3,10-dithia-5,12-diazatricyclo[7.3.0.0^2,6]dodeca-1,4,6,8,11-pentaen-4-yl}-3-[3-(morpholin-4-yl)propoxy]naphthalene-2-carboxamide], the “fold increase of luciferase activity” value is reported as “− (less than 0.5 fold above baseline was considered below the level of quantitation)”. CSc1nc2c(ccc3nc(NC(=O)c4ccc5ccccc5c4)sc32)s1 [Example 19, N-[11-(methylsulfanyl)-3,10-dithia-5,12-diazatricyclo[7.3.0.0^2,^6]dodeca-1,4,6,8,11-pentaen-4-yl]naphthalene-2-carboxamide] was tested, and the “fold increase of luciferase activity” value was “− (less than 0.5 fold above baseline was considered below the level of quantitation)”.
